This sample is rich in variants without activity.
B1: tRNA (parent)
chain: GUUCCGUUGGCGUAAUGGUAACGCGUCUCCCUCCUAAGGAGAAGACUGCGGGUUCGAGUCCCGUACGGAACG

Variants of: B1
Test: yeast fitness relative to wild type (ratio to wild type); higher = fitter; tRNA-Arg(CCU), competitive growth, 37 C, YPD
Procedure, shortened: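 Start and end populations of a pooled competition were compared by 100-nucleotide paired-end sequencing of gene amplicons. The Saccharomyces cerevisiae strains carried tRNA-Arg(CCU) gene variants at the native genomic locus, synthesised with a 3% per-site mutation rate at 69 sites, and competed in YPD at 37°C for 24 hours in six parallel replicates. Darwinian fitness relative to wild type was based on the change in genotype frequencies. Genotypes required ≥ 100 starting reads, and estimates < 0.5 were set to 0.5.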

Variant	yeast fitness
C27A G38U A45G G48C	≤ 0.5
C27A G39C C55U A65C	≤ 0.5
C27A G39C C61G	≤ 0.5
C27A G52C C55A C62G	≤ 0.5
C27A G58C	1.13
C27A U35A G48A G58C	≤ 0.5
C27G A36G A40G A65G	≤ 0.5
C27G A36U G39C C61U	≤ 0.5
C27G A37U G48A	≤ 0.5
C27G A42C A57C A65C	≤ 0.5
C27G A43C C46U C60U A70G	≤ 0.5
C27G A45C C49U G52A U59C	0.6
C27G A45C G58C	0.644
C27G A57U C60G G68C	≤ 0.5
C27G C29A C33A	≤ 0.5
C27G C29G C34U C62A G63A	≤ 0.5
C27G C29G C49U G63C	≤ 0.5
C27G C29U A37G A45G C60A	≤ 0.5
C27G C29U C66U	≤ 0.5
C27G C30G C31U A42G U54C	≤ 0.5
C27G C31A A37C	≤ 0.5
C27G C33G G41C C61A	≤ 0.5
C27G C33G G51C A65U	≤ 0.5
C27G C33U A43U	≤ 0.5

Variant	yeast fitness
C27G C33U A43U G44A	≤ 0.5
C27G C49G U59C	≤ 0.5
C27G C49U C62A A69C	≤ 0.5
C27G C60U G67C	≤ 0.5
C27G C66U A69U	≤ 0.5
C27G G38C C49G A70C	≤ 0.5
C27G G39A G52A C61G	≤ 0.5
C27G G39C A70C	≤ 0.5
C27G G41A A42C U59A	≤ 0.5
C27G G48A U59G	≤ 0.5
C27G G51A G67A	≤ 0.5
C27G G56A C66A	≤ 0.5
C27G U28C C55G	≤ 0.5
C27G U35A	0.636
C27G U35C G68U	≤ 0.5
C27U A36G A40G	≤ 0.5
C27U A36U G52C C61A	≤ 0.5
C27U A37C C60G A65G	≤ 0.5
C27U A37G G48C U59C C62A	≤ 0.5
C27U A37U G56A	≤ 0.5
C27U A37U U47G C55U G63A A65G	≤ 0.5
C27U A40C G58A G67A A70C	≤ 0.5
C27U A42G U47A C66U	≤ 0.5
C27U A57G A69G	≤ 0.5

Variant	yeast fitness
C27U C29U A65C A69C	≤ 0.5
C27U C30G	0.624
C27U C30G A40C G52A	≤ 0.5
C27U C30U A42C A65G	≤ 0.5
C27U C30U A42C A69U A70C	≤ 0.5
C27U C30U A42G C66U	≤ 0.5
C27U C31A A40U	≤ 0.5
C27U C31G U64C A69C	≤ 0.5
C27U C33G A43G U47C A57G C61U C62U	≤ 0.5
C27U C33G A57G	≤ 0.5
C27U C33U A40C C55A A65G	0.503
C27U C33U U47A A70C	≤ 0.5
C27U C34G A45U U53A C60A	≤ 0.5
C27U C34G C49U	≤ 0.5
C27U C34U A36C A37C	≤ 0.5
C27U C46G G51A G52A	≤ 0.5
C27U C49U G52A C60A	≤ 0.5
C27U G38A A40G A43U C46G C49G C62U	≤ 0.5
C27U G38C A40C A42C	≤ 0.5
C27U G39C A42G	≤ 0.5
C27U G41A G58C A69C	0.645
C27U G41A U47C	1.08
C27U G44C G58C G63C	≤ 0.5
C27U G52A	0.7

Variant	yeast fitness
C27U U32C C46G	0.765
U28A A36G G48C A69U A70U	≤ 0.5
U28A A36U C49U	≤ 0.5
U28A A37C C61G G68U	≤ 0.5
U28A A37C G41C	≤ 0.5
U28A A42G A70C	≤ 0.5
U28A A45C U53A	≤ 0.5
U28A A57C C61G	≤ 0.5
U28A A65U	0.642
U28A C29G C31U	≤ 0.5
U28A C30U A69C	0.57
U28A C31A A42C A45U G48A G51A U64A	≤ 0.5
U28A C31A A42C A45U G51A A65U	≤ 0.5
U28A C31A C34G A36C C55U G63A	≤ 0.5
U28A C31U A65U	0.546
U28A C33U A57U	≤ 0.5
U28A C55G A69U	≤ 0.5
U28A G50C C66A	≤ 0.5
U28A G51A A70U	≤ 0.5
U28A G67C	0.774
U28A U32C A43C A57C	≤ 0.5
U28A U32G C55G A65C	≤ 0.5
U28C A42C A43C C55G A57G	≤ 0.5
U28C A42G A65U A69C	≤ 0.5

Variant	yeast fitness
U28C A45U C66A	≤ 0.5
U28C C31A G41A	≤ 0.5
U28C C34A C49G G51C U53C	≤ 0.5
U28C C34U A36C G67C	≤ 0.5
U28C C55U C62A	≤ 0.5
U28C C60A	0.632
U28C G38C A45U G68A A69C	≤ 0.5
U28C G44C G56C A70U	≤ 0.5
U28C U32A A37C A43C C49U	≤ 0.5
U28C U35A	0.578
U28G A36C G38C	≤ 0.5
U28G A57U G63A	0.874
U28G A57U U59C	≤ 0.5
U28G C30A U32G A45G C55U	≤ 0.5
U28G C30U A36C	≤ 0.5
U28G C46A A65C	≤ 0.5
U28G C46U C60A G63A A65U A69U	≤ 0.5
U28G G38C A40G U59C	≤ 0.5
U28G G41C C66A A70C	≤ 0.5
U28G U32A G38C A65C G67C	≤ 0.5
C29A A37G A45C G63C	≤ 0.5
C29A A37G C49A G68A	≤ 0.5
C29A A37U A65G	≤ 0.5
C29A A37U C46G	≤ 0.5

Variant	yeast fitness
C29A A37U C46G A70U	≤ 0.5
C29A A43U G67A	≤ 0.5
C29A A57G A65C	≤ 0.5
C29A A57U	≤ 0.5
C29A A69C	0.679
C29A C30G A45U C66A	≤ 0.5
C29A C31U U64C	≤ 0.5
C29A C33A	≤ 0.5
C29A C49G C55U	≤ 0.5
C29A G38C C49G A69C	≤ 0.5
C29A G41A A43C	0.55
C29A G56C A57G G68U	≤ 0.5
C29A U32C A42U	≤ 0.5
C29G A36U A37U	≤ 0.5
C29G A36U A42G C55A	≤ 0.5
C29G A36U C49U C60U	≤ 0.5
C29G A37C G67A	≤ 0.5
C29G A42C G67C	≤ 0.5
C29G C30U G50C C66A	≤ 0.5
C29G C31U C66U	≤ 0.5
C29G C33G A42G G48A	≤ 0.5
C29G C33G G52C C66U	≤ 0.5
C29G C33U C34U G56C C66A	≤ 0.5
C29G C33U C61A G68U	≤ 0.5

Variant	yeast fitness
C29G C33U G58C	≤ 0.5
C29G C46G G48C	0.533
C29G C49G C55U	≤ 0.5
C29G G38C A70C	≤ 0.5
C29G G44A G56C C62A G67C	≤ 0.5
C29G G48A G56A A69U	≤ 0.5
C29G G48A G67U	≤ 0.5
C29G G50A	0.605
C29G G63A	0.646
C29G U32C A65U	≤ 0.5
C29G U35A A36C G68A	≤ 0.5
C29G U35A G52A C55G A57U	≤ 0.5
C29G U47G A70U	≤ 0.5
C29U	0.989
C29U A36U C61U	≤ 0.5
C29U A36U G38A C60A	≤ 0.5
C29U A36U U54C C55A C62G A69G	≤ 0.5
C29U A37G A65G	≤ 0.5
C29U A42C U54A U59A G67A	≤ 0.5
C29U A43G G48C C55A	≤ 0.5
C29U A43U C46A G67A	≤ 0.5
C29U A57C	0.611
C29U A65C G67U	≤ 0.5

— the RNAGym collection of RNA variant scans (doi:10.1126/science.aae0568)
